Source: paper PMC7826843
Results are given in words; binding and its absence hold for the method and conditions named. In cells and extracts the contact can be indirect. Some binding calls cover weakened binding; strength is not graded here.

Sequences of proteins named here, by UniProt entry; tags and fusion partners are left off.
UniProt Q92993: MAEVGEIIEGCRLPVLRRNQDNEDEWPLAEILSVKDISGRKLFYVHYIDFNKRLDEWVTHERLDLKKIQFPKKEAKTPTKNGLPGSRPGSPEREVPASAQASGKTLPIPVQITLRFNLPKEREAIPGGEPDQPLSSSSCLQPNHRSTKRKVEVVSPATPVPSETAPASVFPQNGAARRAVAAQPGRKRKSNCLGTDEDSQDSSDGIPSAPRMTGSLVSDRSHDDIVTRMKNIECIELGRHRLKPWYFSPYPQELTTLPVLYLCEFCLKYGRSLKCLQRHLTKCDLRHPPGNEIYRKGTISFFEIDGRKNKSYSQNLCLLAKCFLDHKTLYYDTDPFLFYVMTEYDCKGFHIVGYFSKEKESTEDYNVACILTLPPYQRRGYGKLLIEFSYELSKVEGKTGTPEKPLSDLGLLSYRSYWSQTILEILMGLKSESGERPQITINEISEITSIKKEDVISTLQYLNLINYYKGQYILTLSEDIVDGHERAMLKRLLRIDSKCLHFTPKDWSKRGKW

Molecular target: GFP–TIP60 (UniProt Q92993)
Assay: co-IP; HeLa Kyoto cells transiently expressing GFP or GFP–TIP60; RIPA lysate with DNase I, diluted; GFP–Trap Dynabeads over night at 4 °C; immunoblot for JAZF1, ZNHIT1 and GFP

binding: binds
B1: Juxtaposed with Another Zinc Finger 1 (JAZF1), endogenous (protein, UniProt Q86VZ6 1-243)
chain: MTGIAAASFFSNTCRFGGCGLHFPTLADLIEHIEDNHIDTDPRVLEKQELQQPTYVALSYINRFMTDAARREQESLKKKIQPKLSLTLSSSVSRGNVSTPPRHSSGSLTPPVTPPITPSSSFRSSTPTGSEYDEEEVDYEESDSDESWTTESAISSEAILSSMCMNGGEEKPFACPVPGCKKRYKNVNGIKYHAKNGHRTQIRVRKPFKCRCGKSYKTAQGLRHHTINFHPPVSAEIIRKMQQ
